No constants are given. Whether binding was seen depends on the method and setting. Binding seen in cells or lysates may run through a third protein. A yes stands for co-enrichment or nearness to the bait. Other partners may have been found.
T1: STRN4, endogenous (human (endogenous in HEK TER, IMR90)) (UniProt Q9NRL3)
T1 sequence: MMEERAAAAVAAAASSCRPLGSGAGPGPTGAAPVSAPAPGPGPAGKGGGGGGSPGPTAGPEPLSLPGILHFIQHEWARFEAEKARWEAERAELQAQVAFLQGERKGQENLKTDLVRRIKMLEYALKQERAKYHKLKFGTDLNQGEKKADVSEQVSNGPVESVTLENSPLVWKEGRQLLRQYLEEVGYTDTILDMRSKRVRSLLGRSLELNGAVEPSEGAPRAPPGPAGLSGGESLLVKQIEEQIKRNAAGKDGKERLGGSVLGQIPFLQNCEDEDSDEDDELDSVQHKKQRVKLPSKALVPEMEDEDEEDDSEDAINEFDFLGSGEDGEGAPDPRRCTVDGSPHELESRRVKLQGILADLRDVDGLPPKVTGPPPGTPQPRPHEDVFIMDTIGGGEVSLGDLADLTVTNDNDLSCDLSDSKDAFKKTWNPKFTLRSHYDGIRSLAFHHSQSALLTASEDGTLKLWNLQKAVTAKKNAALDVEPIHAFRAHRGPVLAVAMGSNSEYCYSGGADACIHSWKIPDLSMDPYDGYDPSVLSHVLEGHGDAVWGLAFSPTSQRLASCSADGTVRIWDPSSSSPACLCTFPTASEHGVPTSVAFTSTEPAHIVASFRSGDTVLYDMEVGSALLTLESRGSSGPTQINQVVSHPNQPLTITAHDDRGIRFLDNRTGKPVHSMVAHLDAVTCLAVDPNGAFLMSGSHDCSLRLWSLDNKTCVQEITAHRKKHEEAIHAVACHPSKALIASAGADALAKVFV

Chains of the proteins cited; added tags and fusions are not shown.
UniProt O95819: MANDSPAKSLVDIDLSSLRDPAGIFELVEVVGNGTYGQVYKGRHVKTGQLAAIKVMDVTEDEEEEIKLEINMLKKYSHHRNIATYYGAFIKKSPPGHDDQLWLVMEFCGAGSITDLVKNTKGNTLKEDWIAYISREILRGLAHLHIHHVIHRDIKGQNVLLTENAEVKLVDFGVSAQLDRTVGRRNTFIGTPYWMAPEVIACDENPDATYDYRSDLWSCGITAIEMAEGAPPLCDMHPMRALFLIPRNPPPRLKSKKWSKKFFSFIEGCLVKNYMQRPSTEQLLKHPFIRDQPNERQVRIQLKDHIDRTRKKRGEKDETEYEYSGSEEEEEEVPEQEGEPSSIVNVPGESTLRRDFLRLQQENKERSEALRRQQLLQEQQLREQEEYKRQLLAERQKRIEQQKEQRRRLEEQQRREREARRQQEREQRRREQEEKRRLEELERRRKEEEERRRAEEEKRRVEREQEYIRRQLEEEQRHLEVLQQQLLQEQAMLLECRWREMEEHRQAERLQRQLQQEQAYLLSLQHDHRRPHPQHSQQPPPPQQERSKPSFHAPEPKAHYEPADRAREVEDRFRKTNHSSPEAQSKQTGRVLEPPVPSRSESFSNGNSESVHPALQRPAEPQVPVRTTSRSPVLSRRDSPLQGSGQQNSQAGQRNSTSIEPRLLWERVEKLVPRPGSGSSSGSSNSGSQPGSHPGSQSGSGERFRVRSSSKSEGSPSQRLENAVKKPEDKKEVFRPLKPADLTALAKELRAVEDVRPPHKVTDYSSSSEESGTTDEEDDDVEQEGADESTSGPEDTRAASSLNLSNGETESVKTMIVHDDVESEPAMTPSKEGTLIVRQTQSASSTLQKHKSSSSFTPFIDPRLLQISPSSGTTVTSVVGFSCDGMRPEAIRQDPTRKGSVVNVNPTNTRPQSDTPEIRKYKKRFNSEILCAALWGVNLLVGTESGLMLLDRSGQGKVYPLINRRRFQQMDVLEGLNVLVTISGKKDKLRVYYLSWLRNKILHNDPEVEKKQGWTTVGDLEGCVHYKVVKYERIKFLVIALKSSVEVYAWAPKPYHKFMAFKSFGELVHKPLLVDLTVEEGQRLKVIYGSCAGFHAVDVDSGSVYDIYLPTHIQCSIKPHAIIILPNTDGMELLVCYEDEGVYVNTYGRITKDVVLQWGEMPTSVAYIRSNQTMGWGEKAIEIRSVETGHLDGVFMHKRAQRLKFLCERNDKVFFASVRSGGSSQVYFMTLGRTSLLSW
UniProt P30153: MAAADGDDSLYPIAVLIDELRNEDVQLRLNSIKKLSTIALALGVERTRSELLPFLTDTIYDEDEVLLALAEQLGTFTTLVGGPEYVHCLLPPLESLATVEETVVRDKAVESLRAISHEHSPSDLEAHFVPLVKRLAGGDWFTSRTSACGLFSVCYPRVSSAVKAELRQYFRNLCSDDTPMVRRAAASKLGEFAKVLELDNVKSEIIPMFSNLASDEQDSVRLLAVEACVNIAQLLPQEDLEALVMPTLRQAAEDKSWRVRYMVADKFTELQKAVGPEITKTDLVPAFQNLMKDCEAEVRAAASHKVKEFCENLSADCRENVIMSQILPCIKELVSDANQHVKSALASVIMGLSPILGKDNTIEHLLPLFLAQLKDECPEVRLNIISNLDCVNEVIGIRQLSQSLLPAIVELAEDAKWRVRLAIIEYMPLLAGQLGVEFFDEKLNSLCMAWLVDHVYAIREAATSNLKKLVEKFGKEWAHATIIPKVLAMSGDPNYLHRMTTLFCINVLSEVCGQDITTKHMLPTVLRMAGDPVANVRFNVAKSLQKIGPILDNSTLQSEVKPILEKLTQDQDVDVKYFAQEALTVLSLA
UniProt P67775: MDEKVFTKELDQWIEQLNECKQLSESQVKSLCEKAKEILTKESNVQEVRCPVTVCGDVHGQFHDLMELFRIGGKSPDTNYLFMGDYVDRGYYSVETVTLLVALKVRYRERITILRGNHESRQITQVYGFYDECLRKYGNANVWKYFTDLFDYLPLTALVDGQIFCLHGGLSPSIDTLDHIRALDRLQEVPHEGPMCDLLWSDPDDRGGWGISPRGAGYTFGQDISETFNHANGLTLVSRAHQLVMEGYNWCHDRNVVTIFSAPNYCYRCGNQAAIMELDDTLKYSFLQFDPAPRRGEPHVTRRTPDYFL

B1: STRN4, endogenous (protein, UniProt Q9NRL3 1-753)
chain: T1 sequence
B2: STRN3, endogenous (protein, UniProt Q13033 1-797)
chain: MDELAGGGGGGPGMAAPPRQQQGPGGNLGLSPGGNGAAGGGGPPASEGAGPAAGPELSRPQQYTIPGILHYIQHEWARFEMERAHWEVERAELQARIAFLQGERKGQENLKKDLVRRIKMLEYALKQERAKYHKLKYGTELNQGDLKMPTFESEETKDTEAPTAPQNSQLTWKQGRQLLRQYLQEVGYTDTILDVRSQRVRSLLGLSNSEPNGSVETKNLEQILNGGESPKQKGQEIKRSSGDVLETFNFLENADDSDEDEENDMIEGIPEGKDKHRMNKHKIGNEGLAADLTDDPDTEEALKEFDFLVTAEDGEGAGEARSSGDGTEWDKDDLSPTAEVWDVDQGLISKLKEQYKKERKGKKGVKRANRTKLYDMIADLGDDELPHIPSGIINQSRSASTRMTDHEGARAEEAEPITFPSGGGKSFIMGSDDVLLSVLGLGDLADLTVTNDADYSYDLPANKDAFRKTWNPKYTLRSHFDGVRALAFHPVEPVLVTASEDHTLKLWNLQKTVPAKKSASLDVEPIYTFRAHIGPVLSLAISSNGEQCFSGGIDATIQWWNMPSPSVDPYDTYEPNVLAGTLVGHTDAVWGLAYSGIKNQLLSCSADGTVRLWNPQEKLPCICTYNGDKKHGIPTSVDFIGCDPAHMVTSFNTGSAVIYDLETSQSLVILSSQVDSGLQSNNHINRVVSHPTLPVTITAHEDRHIKFFDNKTGKMIHSMVAHLDAVTSLAVDPNGIYLMSGSHDCSIRLWNLDSKTCVQEITAHRKKLDESIYDVAFHSSKAYIASAGADALAKVFV
B3: SIKE1, endogenous (protein, UniProt Q9BRV8 1-207)
chain: MSCTIEKILTDAKTLLERLREHDAAAESLVDQSAALHRRVAAMREAGTALPDQYQEDASDMKDMSKYKPHILLSQENTQIRDLQQENRELWISLEEHQDALELIMSKYRKQMLQLMVAKKAVDAEPVLKAHQSHSAEIESQIDRICEMGEVMRKAVQVDDDQFCKIQEKLAQLELENKELRELLSISSESLQARKENSMDTASQAIK
B4: SLMAP, endogenous (protein, UniProt Q14BN4 1-828)
chain: MPSALAIFTCRPNSHPFQERHVYLDEPIKIGRSVARCRPAQNNATFDCKVLSRNHALVWFDHKTGKFYLQDTKSSNGTFINSQRLSRGSEESPPCEILSGDIIQFGVDVTENTRKVTHGCIVSTIKLFLPDGMEARLRSDVIHAPLPSPVDKVAANTPSMYSQELFQLSQYLQEALHREQMLEQKLATLQRLLAITQEASDTSWQALIDEDRLLSRLEVMGNQLQACSKNQTEDSLRKELIALQEDKHNYETTAKESLRRVLQEKIEVVRKLSEVERSLSNTEDECTHLKEMNERTQEELRELANKYNGAVNEIKDLSDKLKVAEGKQEEIQQKGQAEKKELQHKIDEMEEKEQELQAKIEALQADNDFTNERLTALQVRLEHLQEKTLKECSSLEHLLSKSGGDCTFIHQFIECQKKLIVEGHLTKAVEETKLSKENQTRAKESDFSDTLSPSKEKSSDDTTDAQMDEQDLNEPLAKVSLLKDDLQGAQSEIEAKQEIQHLRKELIEAQELARTSKQKCFELQALLEEERKAYRNQVEESTKQIQVLQAQLQRLHIDTENLREEKDSEITSTRDELLSARDEILLLHQAAAKVASERDTDIASLQEELKKVRAELERWRKAASEYEKEITSLQNSFQLRCQQCEDQQREEATRLQGELEKLRKEWNALETECHSLKRENVLLSSELQRQEKELHNSQKQSLELTSDLSILQMSRKELENQVGSLKEQHLRDSADLKTLLSKAENQAKDVQKEYEKTQTVLSELKLKFEMTEQEKQSITDELKQCKNNLKLLREKGNNKPWPWMPMLAALVAVTAIVLYVPGLARASP
B5: CTTNBP2NL, endogenous (protein, UniProt Q9P2B4 1-639)
chain: MNLEKLSKPELLTLFSILEGELEARDLVIEALKAQHRDTFIEERYGKYNISDPLMALQRDFETLKEKNDGEKQPVCTNPLSILKVVMKQCKNMQERMLSQLAAAESRHRKVILDLEEERQRHAQDTAEGDDVTYMLEKERERLTQQLEFEKSQVKKFEKEQKKLSSQLEEERSRHKQLSSMLVLECKKATNKAAEEGQKAGELSLKLEKEKSRVSKLEEELAAERKRGLQTEAQVEKQLSEFDIEREQLRAKLNREENRTKTLKEEMESLKKIVKDLEASHQHSSPNEQLKKPVTVSKGTATEPLMLMSVFCQTESFPAERTHGSNIAKMTNTGLPGPATPAYSYAKTNGHCDPEIQTTRELTAGNNVENQVPPREKSVALAQEKPVENGGCPVGIETPVPMPSPLSSSGSSLSPSSTASSSLTSSPCSSPVLTKRLLGSSASSPGYQSSYQVGINQRFHAARHKFQSQADQDQQASGLQSPPSRDLSPTLIDNSAAKQLARNTVTQVLSRFTSQQGPIKPVSPNSSPFGTDYRNLANTANPRGDTSHSPTPGKVSSPLSPLSPGIKSPTIPRAERGNPPPIPPKKPGLTPSPSATTPLTKTHSQAASLTTAEDLASSCSSNTVVANGKDVELLLPTSS

biological target: NTAP-MAP4K4 (N-terminal Flag-HA tagged MAP4K4) (human) (UniProt O95819); experiment: affinity purification with mass spectrometry

Row | Molecule | binding
1 | PP2A Aα subunit (PPP2R1A), endogenous (from UniProt P30153 1-589) | binds
2 | B1 | binds
3 | B2 | binds

biological target: T1, STRN4, endogenous (human (endogenous in HEK TER, IMR90)); experiment: affinity purification with mass spectrometry

Row | Molecule | binding
4 | PP2A Cα subunit, endogenous (from UniProt P67775 1-309) (enzyme) | binds
5 | mitogen-activated protein kinase kinase kinase kinase 4 (MAP4K4), endogenous (from UniProt O95819 1-1239) (enzyme) | binds
6 | B3 | binds
7 | B4 | binds
8 | B5 | binds
